Results deposited as PubChem BioAssay AID1159578 (Peter MacCallum Cancer Centre, 2015).

Test: 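siRNA pools altering how lymphatic endothelial cells close a scratch wound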 (primary screen)
Cells: human lymphatic endothelial cells
Reagent: siRNA pool against human genes, 40 nM
Timing: 48 h after transfection
Measured: 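Cells stained with dye and imaged after a scratch; covered wound area and nuclei counted, duplicates averaged, migration set against mock wells and turned into a robust z-score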
Scale: migration robust z-score: higher = faster migration into the scratch; nuclei per well: higher = more cells in the well
Hit rule: 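Pools averaging fewer than 3300 nuclei are never called; remaining pools count as changed when migration robust z lies outside -2 to 2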
Calls: active = migration changed; inactive = no migration change, or too few cells
In all, the deposit lists about 18,000 reagents; this is a random part of them. Of all reagents, about 1,030 (5.7%) are marked active. 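Inactive calls also include pools with fewer than 3300 nuclei, whose migration was not assessed.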 The raw values are shown without normalisation. Entries without a mark were called inactive. Further read-outs or replicates are left out here.

HCFC2 scored migration robust z-score 0.08; nuclei per well, duplicate mean 5796.
OR5P3 showed migration robust z-score 1.11; nuclei per well, duplicate mean 5814.
With knock-down of ITPR2 the results were migration robust z-score -0.52; nuclei per well, duplicate mean 5218.
Depletion of HLA-DQA1 gave: migration robust z-score 0.24; nuclei per well, duplicate mean 5384.
SETD9 scored migration robust z-score -2.7 (active); nuclei per well, duplicate mean 4054.
ALAD scored migration robust z-score -1.4; nuclei per well, duplicate mean 6218.
Depletion of SAMD4A gave: migration robust z-score 0.99; nuclei per well, duplicate mean 5916.
ATP6V0A2 gave migration robust z-score -0.19; nuclei per well, duplicate mean 6198.
After knock-down of RPS6KB2, the record shows migration robust z-score 0.6; nuclei per well, duplicate mean 6194.
Silencing of APH1A gave: migration robust z-score 0.48; nuclei per well, duplicate mean 6212.
With knock-down of GC, the screen gave migration robust z-score -0.06; nuclei per well, duplicate mean 5473.

Reagents above marked active, once more:
SETD9 → migration robust z-score = -2.7 (active); nuclei per well, duplicate mean = 4054

Next entries follow.
After knock-down of TREM2 the results were migration robust z-score -0.52; nuclei per well, duplicate mean 4344.
SCTR scored migration robust z-score -0.32; nuclei per well, duplicate mean 3130.
For PLCH2 the deposit lists migration robust z-score -0.78; nuclei per well, duplicate mean 5093.
PTPA showed migration robust z-score 1.12; nuclei per well, duplicate mean 6077.
Against ZNF597, the values are migration robust z-score 0.46; nuclei per well, duplicate mean 5266.
After knock-down of KCNH8, the record shows migration robust z-score -2.99; nuclei per well, duplicate mean 2973.
After knock-down of MYOM1 the results were migration robust z-score -2.29 (active); nuclei per well, duplicate mean 5890.
Depletion of MAP1S came out at: migration robust z-score -1.46; nuclei per well, duplicate mean 2981.
Silencing of COX7A2 resulted in: migration robust z-score -0.42; nuclei per well, duplicate mean 4950.
After knock-down of TMEM179B, the screen gave migration robust z-score 0.58; nuclei per well, duplicate mean 6580.
